Literature values in US20180098977A1, “SCALABLE MICROPARTICULATE FORMULATIONS CONTAINING POLYMORPHIC NIMODIPINE FORM 2 PREPARED BY A SOLVENT EVAPORATION PROCESS” (Edge Therapeutics, Inc., priority 2016, published 2018).
The name of at least one read-out is uncertain.

Details: oral administration; cited from earlier work

COCCOC(=O)C1=C(C)NC(C)=C(C(=O)OC(C)C)C1c1cccc([N+](=O)[O-])c1 (stereo not shown) [nimodipine, isopropyl(2-methoxyethyl)-1,4-dihydro-2,6-dimethyl-4-(3-nitrophenyl)-3,5-pyridinedicarboxylate]
relative bioavailability: approximately 18%
